At least one compound was matched to its structure with a doubt left.
Columns and labels:
[1] = Binding constants of Motor1 towards guests; conditions: host Motor1
[2] = Binding affinities of compounds towards Motor2; conditions: host Motor2

Q: With CC(=O)OCC[N+](C)(C)C [acetylcholine] as the compound, how does the “Ka, binding constant of Motor1 towards guest” value [1] read?
A: 2.4 ± 0.1 × 10^4

Q: And the “Ka (M^−1) with Motor2” value [2]?
A: 1.8 ± 0.2 × 10^8 M^−1
